Source: the supplement of paper PMC7877785
± gives the uncertainty stated by the source. The uncertainty is large for many entries.

Assay: self-splicing fitness, log relative to wild type (ln ratio); higher = more splicing; Tetrahymena group I intron in knt gene, E. coli kanamycin selection, DiMSum; sequences stand for … in CUCUCU…GGAGGGAAAAGUUAUCAGGCAUGCACCUGGUAGCUAGUCUUUAAACCAAUAGAUUGCAUCGGUUUAAAAGGCAAGACCGUCAAAUUGCGGGAAAGGGGUCAACAGCCGUUCAGUACCAAGUCUCAGGGGAAACUUUGAGAUGGCCUUGCAAAGGGUAUGGUAAUAAGCUGACGGACAUGGUCCUAACCACGCAGCCAAGUCCUAAGUCAACAGAUCUUCUGUUGAUAUGGAUGCAGUUCACAGACUAAAUGUCGGUCGGGGAAGAUGUAUUCUUCUCAUAAGAUAUAGUCGGACCUCUCCUUAAUGGGAGCUAGCGGAUGAAGUGAUGCAACACUGGAGCCGCUGGGAACUAAUUUGUAUGCGAAAGUAUAUUGAUUAGUUUUGGAGUACUCGUGGUCG
Summary of the method: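 A randomised library covering all eight P1ex-region intron nucleotides was built with the intron in the knt kanamycin-resistance gene on pET-22b(+) and held in E. coli BL21(DE3). Cells were grown overnight at 37°C or 30°C on LB agar, with or without 25 μg/mL kanamycin, plus 100 μg/mL carbenicillin, 50 μM IPTG and 0.2% rhamnose, and pooled colonies were amplicon-sequenced on an Illumina HiSeq 2500. DiMSum fitness is the error-weighted combination of wild-type-normalised replicate fold changes, kanamycin versus none.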

Sequence | self-splicing fitness (ln) (30 °C) | self-splicing fitness (ln) (37 °C)
GACUAGCAAUAUUACGGACU | -0.117 ± 0.11 | -0.611 ± 0.14
GGAGAGCAAUAUUACGGCGC | -0.753 ± 0.62 | -0.134 ± 0.63
GAGUAGCAAUAUUACGUCUC | -3.39 ± 0.65 | -3.55 ± 0.6
AAGGAGCAAUAUUACGUGAA |  | -2.57 ± 0.75
AAAGAGCAAUAUUACGACUG |  | -1.93 ± 0.51
CGGCAGCAAUAUUACGCCAG |  | -2.56 ± 0.55
UUCGAGCAAUAUUACGCAUU | -4.33 ± 0.51 | 
UACGAGCAAUAUUACGCCAC | -3.89 ± 0.6 | 
GUCCAGCAAUAUUACGAGCC | -1.18 ± 0.15 | -0.519 ± 0.16
ACAUAGCAAUAUUACGAGAG | -3.57 ± 0.28 | -2.55 ± 0.18
GACGAGCAAUAUUACGCAAU | -5.39 ± 1 | 
UAGUAGCAAUAUUACGAGUU | -3.96 ± 0.28 | -2.75 ± 0.23
CAAUAGCAAUAUUACGUUCA | -3.43 ± 0.25 | -2.59 ± 0.24
GCCUAGCAAUAUUACGGCCC | -3.4 ± 0.48 | -0.535 ± 0.27
UAAGAGCAAUAUUACGCGAC | -4.02 ± 0.73 | -2.52 ± 0.54
UACGAGCAAUAUUACGAAAC |  | -2.77 ± 0.54
GGAGAGCAAUAUUACGAACA | -1.43 ± 0.55 | 
GAAGAGCAAUAUUACGAGGA | -2.21 ± 0.79 | -2.66 ± 0.61
CUAUAGCAAUAUUACGGCCA | -2.03 ± 0.66 | 
GCUCAGCAAUAUUACGAGUA | -0.337 ± 0.098 | -0.433 ± 0.1
GCUAAGCAAUAUUACGCUGU | -3.88 ± 0.73 | 
GGGUAGCAAUAUUACGAAAA |  | -2.07 ± 0.52
GCGUAGCAAUAUUACGCUAC | -1.53 ± 0.72 | -0.921 ± 0.58
CGGAAGCAAUAUUACGUCGU | -4.14 ± 0.51 | 

Sequence | self-splicing fitness (ln) (30 °C) | self-splicing fitness (ln) (37 °C)
CUCAAGCAAUAUUACGGUGU | -3.3 ± 0.12 | -1.31 ± 0.13
UUAGAGCAAUAUUACGCAUU |  | -1.37 ± 1.2
UUCCAGCAAUAUUACGCUCG | -3.29 ± 0.52 | 
UGAAAGCAAUAUUACGCAUC | -3.5 ± 0.73 | 
GAUAAGCAAUAUUACGAGCA | -2.12 ± 0.18 | -0.853 ± 0.16
GCGGAGCAAUAUUACGGCUA | -2.01 ± 0.52 | 
AUACAGCAAUAUUACGAAGC | -3.01 ± 0.56 | -2.67 ± 0.62
UCUGAGCAAUAUUACGGUCC |  | -3.12 ± 0.73
GGAUAGCAAUAUUACGGGGU | -4.47 ± 1 | -3.01 ± 0.35
CCCUAGCAAUAUUACGCAAG | -3.65 ± 0.28 | -2.06 ± 0.23
UAUAAGCAAUAUUACGUACG | -0.621 ± 0.13 | -0.0322 ± 0.15
CGUUAGCAAUAUUACGCUUU | -3.86 ± 1 | 
CAGUAGCAAUAUUACGCAAA | -3.74 ± 0.62 | 
CUUUAGCAAUAUUACGCGUU | -3.9 ± 0.51 | -3.44 ± 0.6
CAGGAGCAAUAUUACGAACA | -3.59 ± 0.6 | -2.16 ± 1.1
UUAAAGCAAUAUUACGGAGA | -1.64 ± 0.15 | 0.00703 ± 0.2
CCGUAGCAAUAUUACGAUCC | -3.31 ± 1 | -1.57 ± 0.54
ACUUAGCAAUAUUACGAGGC |  | -2.4 ± 0.77
GAUAAGCAAUAUUACGCUGA | -5.31 ± 1 | 
GUGCAGCAAUAUUACGUCAC | -4.41 ± 0.72 | 
UAGUAGCAAUAUUACGAUAC |  | -2.32 ± 0.63
UUGCAGCAAUAUUACGACGC |  | -2.24 ± 0.58
CCAAAGCAAUAUUACGCUCC | -1.01 ± 0.2 | -1.74 ± 0.36
UCAGAGCAAUAUUACGGACC | -3.8 ± 0.61 | -1.85 ± 0.81

Sequence | self-splicing fitness (ln) (30 °C) | self-splicing fitness (ln) (37 °C)
CAAAAGCAAUAUUACGUACU | -2.74 ± 0.11 | -0.995 ± 0.09
CUGCAGCAAUAUUACGCCUA | -3.46 ± 0.74 | 
GCGUAGCAAUAUUACGAUGU | -2.18 ± 0.068 | -1.15 ± 0.096
CGAUAGCAAUAUUACGCCAU | -3.28 ± 0.53 | -2.67 ± 0.75
UAGGAGCAAUAUUACGGUAC | -4.4 ± 1 | -3.31 ± 0.6
UUCCAGCAAUAUUACGAACU | -2.94 ± 0.54 | -2.37 ± 0.63
UAAGAGCAAUAUUACGGGCU | -4.14 ± 0.72 | 
UCUUAGCAAUAUUACGAGAA |  | -2.3 ± 1.1
UUUCAGCAAUAUUACGUUCC | -3.19 ± 1.2 | -1.88 ± 1.2
CAGUAGCAAUAUUACGUUGC |  | -3.97 ± 1
GCGCAGCAAUAUUACGUCCC | -1.14 ± 0.3 | 0.234 ± 0.2
UCCGAGCAAUAUUACGAACU |  | -2.3 ± 0.32
GUCUAGCAAUAUUACGACCC | 0.062 ± 1.1 | 1.58 ± 0.58
GACGAGCAAUAUUACGAAGC | -3.7 ± 0.59 | -2.9 ± 1.1
CCCAAGCAAUAUUACGGGAG | -3.79 ± 0.13 | -2.29 ± 0.13
CUAUAGCAAUAUUACGAACC |  | -0.742 ± 0.65
GUAUAGCAAUAUUACGGUAC | -3.19 ± 0.53 | 
UUUAAGCAAUAUUACGAUAC | -3.42 ± 0.52 | -2.24 ± 0.78
AUAUAGCAAUAUUACGCUGG | -2.06 ± 0.2 | -1.51 ± 0.32
CUCUAGCAAUAUUACGGCCA |  | -3.27 ± 0.6
UAGUAGCAAUAUUACGCGAA | -1.93 ± 0.67 | 
CAAGAGCAAUAUUACGCACU |  | -3.48 ± 0.52
UAGCAGCAAUAUUACGCGAU | -2.94 ± 0.2 | -3.07 ± 0.35
CAUUAGCAAUAUUACGGCCU | -3.52 ± 0.18 | -2.21 ± 0.21

25 neighbouring records from above:
Sequence | self-splicing fitness (ln) (30 °C) | self-splicing fitness (ln) (37 °C)
UUCCAGCAAUAUUACGCUCG | -3.29 ± 0.52 | 
UGAAAGCAAUAUUACGCAUC | -3.5 ± 0.73 | 
GAUAAGCAAUAUUACGAGCA | -2.12 ± 0.18 | -0.853 ± 0.16
GCGGAGCAAUAUUACGGCUA | -2.01 ± 0.52 | 
AUACAGCAAUAUUACGAAGC | -3.01 ± 0.56 | -2.67 ± 0.62
UCUGAGCAAUAUUACGGUCC |  | -3.12 ± 0.73
GGAUAGCAAUAUUACGGGGU | -4.47 ± 1 | -3.01 ± 0.35
CCCUAGCAAUAUUACGCAAG | -3.65 ± 0.28 | -2.06 ± 0.23
UAUAAGCAAUAUUACGUACG | -0.621 ± 0.13 | -0.0322 ± 0.15
CGUUAGCAAUAUUACGCUUU | -3.86 ± 1 | 
CAGUAGCAAUAUUACGCAAA | -3.74 ± 0.62 | 
CUUUAGCAAUAUUACGCGUU | -3.9 ± 0.51 | -3.44 ± 0.6
CAGGAGCAAUAUUACGAACA | -3.59 ± 0.6 | -2.16 ± 1.1
UUAAAGCAAUAUUACGGAGA | -1.64 ± 0.15 | 0.00703 ± 0.2
CCGUAGCAAUAUUACGAUCC | -3.31 ± 1 | -1.57 ± 0.54
ACUUAGCAAUAUUACGAGGC |  | -2.4 ± 0.77
GAUAAGCAAUAUUACGCUGA | -5.31 ± 1 | 
GUGCAGCAAUAUUACGUCAC | -4.41 ± 0.72 | 
UAGUAGCAAUAUUACGAUAC |  | -2.32 ± 0.63
UUGCAGCAAUAUUACGACGC |  | -2.24 ± 0.58
CCAAAGCAAUAUUACGCUCC | -1.01 ± 0.2 | -1.74 ± 0.36
UCAGAGCAAUAUUACGGACC | -3.8 ± 0.61 | -1.85 ± 0.81
CAAAAGCAAUAUUACGUACU | -2.74 ± 0.11 | -0.995 ± 0.09
CUGCAGCAAUAUUACGCCUA | -3.46 ± 0.74 | 
GCGUAGCAAUAUUACGAUGU | -2.18 ± 0.068 | -1.15 ± 0.096

The list continues:

Sequence | self-splicing fitness (ln) (30 °C) | self-splicing fitness (ln) (37 °C)
UAUAAGCAAUAUUACGUAGC | -3.39 ± 0.61 | 
UUAGAGCAAUAUUACGUACC | -3.13 ± 1 | 
GUGGAGCAAUAUUACGCGGC | -2.78 ± 0.54 | -2.86 ± 1.1
CGCGAGCAAUAUUACGUACC | -4.33 ± 1 | 
AGAUAGCAAUAUUACGAGAG | -3.7 ± 0.29 | -2.37 ± 0.25
GGCCAGCAAUAUUACGAACC | 0.576 ± 0.31 | -0.0497 ± 0.4
GAGGAGCAAUAUUACGCGGC |  | -0.601 ± 0.82
GAUGAGCAAUAUUACGCCGG | -3.73 ± 0.52 | 
UAUUAGCAAUAUUACGGAAC | -4.28 ± 0.73 | -2.58 ± 0.62
CAGUAGCAAUAUUACGAACC |  | -2.39 ± 1.1
GAUUAGCAAUAUUACGCUAU | -2.97 ± 0.41 | -1.85 ± 0.81
UCAGAGCAAUAUUACGAUAA | -4.5 ± 1 | 
GUAUAGCAAUAUUACGAAGC | -3.19 ± 0.54 | 
CAGAAGCAAUAUUACGGCCC |  | -2.43 ± 0.77
GUUCAGCAAUAUUACGGCCC | -0.59 ± 0.19 | 0.24 ± 0.24
AACGAGCAAUAUUACGUGUU | -4.56 ± 0.51 | 
UGAUAGCAAUAUUACGUGGC |  | -1.38 ± 0.63
GGUAAGCAAUAUUACGAGGC | -3.57 ± 1 | -1.74 ± 0.66
ACACAGCAAUAUUACGUGAG | -1.02 ± 0.05 | 0.121 ± 0.074
ACCUAGCAAUAUUACGCGGG |  | -3.02 ± 0.61
CUCCAGCAAUAUUACGGGCA | -4.15 ± 0.53 | 
UGAGAGCAAUAUUACGGACC |  | -1.79 ± 1.2
CUAUAGCAAUAUUACGCAAC | -4.99 ± 0.59 | 
AGCUAGCAAUAUUACGGCUC | -3.32 ± 0.37 | -3.06 ± 0.43

Sequence | self-splicing fitness (ln) (30 °C) | self-splicing fitness (ln) (37 °C)
UCAGAGCAAUAUUACGAACC | -3.11 ± 0.8 | 
GCGUAGCAAUAUUACGCCGA | -3.83 ± 1 | 
UUUGAGCAAUAUUACGGUCU | -3.28 ± 0.61 | 
UGAGAGCAAUAUUACGGUGC |  | -2.52 ± 1.1
UGAUAGCAAUAUUACGCGUC |  | -3.16 ± 0.53
CUAUAGCAAUAUUACGGACA | -2.77 ± 0.22 | -1.1 ± 0.29
GUUCAGCAAUAUUACGAACC |  | -2.14 ± 0.77
GACGAGCAAUAUUACGUCCC | -3.7 ± 1.1 | 
CAGAAGCAAUAUUACGAACC | -2.15 ± 0.55 | -2.29 ± 1.1
UUCUAGCAAUAUUACGGUCC | -3.46 ± 1.1 | 
CAGGAGCAAUAUUACGGUGU | -3.1 ± 0.15 | -2.66 ± 0.2
UGUGAGCAAUAUUACGGAGG | -3.33 ± 0.29 | -2.11 ± 0.34
CGAGAGCAAUAUUACGCCAU | -2.89 ± 0.66 | 
CCUCAGCAAUAUUACGCAAA | -3.3 ± 0.56 | 
CUUUAGCAAUAUUACGAACU | -3.28 ± 0.24 | -2.54 ± 0.19
AGCAAGCAAUAUUACGUGCC | -4.13 ± 0.74 | 
CGGGAGCAAUAUUACGCACG |  | -2.74 ± 0.74
GGCGAGCAAUAUUACGGUUU | -1.06 ± 0.076 | 0.0414 ± 0.11
CCGUAGCAAUAUUACGACCA |  | -2.5 ± 0.64
UAGUAGCAAUAUUACGAAUC |  | -2.79 ± 1.1
